Results are given in words; binding and its absence hold for the method and conditions named. Some results given as binding are weak or reduced against the parent protein; the word gives no strength.

Assay [1] concerns the target T1, truncated version of Siglec-9 that only contains the V domain (human) (UniProt Q9Y336).
T1 sequence: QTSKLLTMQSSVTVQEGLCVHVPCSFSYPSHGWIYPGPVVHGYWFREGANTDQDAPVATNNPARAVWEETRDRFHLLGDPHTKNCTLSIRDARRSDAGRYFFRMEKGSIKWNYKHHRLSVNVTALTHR
In words: ELISA on truncated Siglec-9 (V domain only), hybridoma screening. Background: ELISA stands for enzyme-linked immunosorbent assay.

Assay [2] concerns the target human Siglec-9 protein (recombinant; construct not stated) (human) (UniProt Q9Y336). Kind of assay: BLI, antibody in Fab format at 250 nM. (In general: Biolayer interferometry detects binding as a change in optical thickness at a sensor tip.)
For assay [3] the target is unchanged. In words: ELISA on recombinant Siglec-9.
Assay [4] deals with human Siglec-9 expressed on cells (human) (UniProt Q9Y336). Kind of assay: flow cytometry on human M1-like and M2-like macrophages expressing Siglec-9. (Flow cytometry measures light scatter and fluorescence of single cells or particles in a stream.)
In assay [5] the target is recombinant Siglec-9 (SinoBiological, 30109-H03H) (human) (UniProt Q9Y336). In words: ELISA on coated recombinant Siglec-9, OD against antibody concentration (FIG. 11).

B1: anti-Siglec-9 monoclonal antibody clone ED2D5 (antibody, V domains shown)
VH: EVQLVESGGGLVKPGGSLKLSCAASGFTFSDYYMYWVRQTPEKRLEWVATISDGGSDTYYPDNMKGRFTISRDNAKNNLYLQMSSLKSEDTAMYYCTRDPDYDDGRFAYWGQGTLVTVSA
VL: DIVMTQSHKFMSTSVGDRVSITCKASQDVGTVVAWYQQKSGQSPKLLIYWSSTRHTGVPDRFTGSGSGTDFTLTISNVQSEDLADYFCQQYIDYPLSFGAGTKLELK
Consider B1, for which the binding entry in assay [1] was “binds”.

B2: CB6B3 in Fab format (Fab, V domains shown)
VH: EVQLQQSGAEVVRPGALVKLSCKAAGFNIKDYFIHWVKQRPEQGLEWIGLIDPENDNTMYDPRFQVKASLTADTSSNTAYLQLSRLTSEDAAVYYCASTVVARSFDYWGQGTTLTVSS
VL: SIVMTQTPKFLLVSAGDRVTITCKASQSVSNDVAWYQQKSGQSPKLLIYYTSNRYTGVPDRFTGSGYGTDFTFTISTVQAEDLAVYFCQQDFRSPFTFGAGTKLELK
For B2, the binding entry in assay [2] is reported as “binds”.

B3: anti-Siglec-9 monoclonal antibody clone CB6B3 (parental mouse antibody) (antibody, V domains shown)
VH: EVQLQQSGAEVVRPGALVKLSCKAAGFNIKDYFIHWVKQRPEQGLEWIGLIDPENDNTMYDPRFQVKASLTADTSSNTAYLQLSRLTSEDAAVYYCASTVVARSFDYWGQGTTLTVSS
VL: SIVMTQTPKFLLVSAGDRVTITCKASQSVSNDVAWYQQKSGQSPKLLIYYTSNRYTGVPDRFTGSGYGTDFTFTISTVQAEDLAVYFCQQDFRSPFTFGAGTKLELK
As for B3, the binding result in assay [1] is on record as “binds”.

B4: humanised CB6B3 (huCB6B3) (antibody, V domains shown)
VH: EVQLVQSGAEVKKPGATVKISCKVSGYTFTDYFIHWVQQAPGKGLEWMGLIDPENDNTMYDPRFQVRVTITADTSTDTAYMELSSLRSEDTAVYYCASTVVARSFDYWGQGTTVTVSS
VL: AIQMTQSPSSLSASVGDRVTITCKASQSVSNDVAWYQQKPGKAPKLLIYYTSNRYTGVPSRFSGSGSGTDFTLTISSLQPEDFATYYCQQDFRSPFTFGGGTKVEIK
With B4, the binding entry in assay [3], in assay [4] and in assay [5] was “binds” each time.

The record behind these values is patent US20260022170A1.
